As usually defined, the AC50 is the concentration at which the activity in the assay is half-maximal.

The other results are listed elsewhere or left out. Further columns of the screen follow, without active or inactive calls. Most of these compounds were active or inconclusive in the main read-out, so they are no random draw. The note in brackets gives the kind of curve behind each potency; many fits are weak.

This is an account of results in PubChem BioAssay AID493014 (National Center for Advancing Translational Sciences (NCATS), 2011).

This assay is described as follows: qHTS Assay to Find Inhibitors of Chronic Active B-Cell Receptor Signaling. To be noted: ABC-DLBCL IkBa-CBG/CBR reporter, luminescence ratio (green luciferase fused to IkBa over red control in TMD8 lymphoma cells), 4 h. Put shortly: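 TMD8 ABC-DLBCL cells carrying doxycycline-inducible green luciferase fused to IkappaBalpha plus unfused red luciferase were exposed to compounds (up to 46 uM) for 4 hrs at 37C. Activity came from the overlap-corrected green/red luminescence ratio.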
(Quantitative high-throughput screening tests each substance at several concentrations.)

Setting [1] is: measured here: CBR red luminescence, cell number.
The mark [2] stands for this setting: measured here: IkBa-CBG green luminescence.

Regarding `CN1CCN(CCCNC(=O)c2cc3c(-c4ccc(Cl)cc4)nn(C)c3s2)CC1`, the half-maximal activity concentration (AC50) was 23.1 µM [falling, single point] under setting [1] and 11.6 µM [rising, partial curve, poor fit] under setting [2].

Take `COc1ccc(C2C(C(=O)NCc3ccccn3)CCC(=O)N2c2cc(OC)c(OC)c(OC)c2)cc1` (stereo not drawn): under setting [1], the AC50 is 0.282 µM [rising, full curve, poor fit].

For `CCOC(=O)Cc1csc(NC(=O)Nc2ccc(C)cc2)n1`, the AC50 under setting [1] is 22.4 µM [falling, single point].

On to `COc1ccc(/C=C/C(=O)c2ccccn2)cc1`, for which the AC50 runs as follows: under setting [1], 28.2 µM [rising, single point]; under setting [2], 35.5 µM [falling, single point].

Regarding `O=C(COc1ccccc1)N1CCc2ccccc2C1`, the AC50 under setting [1] was 29.1 µM [falling, single point].

For the molecule `Cc1ccc(CNC(=O)COC(=O)c2ccc(Cl)c(N)c2)cc1`, the concentration at half-maximal activity (AC50) under setting [1] was 16.4 µM [falling, partial curve, poor fit].

Regarding `COc1ccc(-c2cc(C(F)(F)F)nc(SCC(=O)NCc3ccco3)n2)cc1OC`, the AC50 under setting [1] was 0.0291 µM [rising, full curve, poor fit].

For `COc1cc(/C=N/O)cc(Br)c1OCc1ccc(Cl)cc1`, the concentration at half-maximal activity (AC50) under setting [1] was 31.6 µM [rising, single point].

Turning to `CC(C)Sc1nnc(Nc2ccccc2)s1`, under setting [1], the half-maximal activity concentration (AC50) is 3.98 µM [rising, partial curve, poor fit].

With `Cc1ccccc1C(=O)Nc1nnc(SCC(=O)NC2CC2)s1`, the AC50 under setting [1] was 2 µM [falling, partial curve, poor fit].

For the molecule `Cc1cccc(CC2S/C(=N/N=C/c3ccco3)N(c3ccccc3)C2=O)c1` (stereo not drawn), the AC50 under setting [1] was 16.4 µM [rising, partial curve].

Consider `O=S(=O)(c1ccc(Br)cc1)c1cnc2ccccc2n1`, for which the AC50 under setting [1] is 11.2 µM [falling, partial curve].

For `Cc1ccc(S(=O)(=O)NCC(=O)NCC(=O)OCc2c(F)cccc2Cl)cc1`, under setting [1], the AC50 was 25.1 µM [falling, single point].

With `Cc1c(/C=N/NC(=O)c2ccc3c(c2)OCO3)cnn1C`, the AC50 under setting [1] was 12.6 µM [falling, partial curve].

Regarding `O=C(c1cc(-c2ccc(Cl)c(Cl)c2)on1)N1CCCCCC1`, the half-maximal activity concentration (AC50) under setting [1] was 0.316 µM [rising, full curve, poor fit].

Consider `CCCNC(=S)Nc1ccc(CC(=O)OC)cc1`, for which, under setting [1], the half-maximal activity concentration (AC50) was 4.11 µM [rising, partial curve, poor fit].

Regarding `COC(=O)Nc1ccc2c(c1)N(C(=O)CCCl)c1ccccc1S2`, the AC50 under setting [1] is 28.2 µM [falling, single point].

Take `CCN(CC)CCN(C(=O)c1ccc(N2C(=O)CCC2=O)cc1)c1nc2cc3c(cc2s1)OCCO3`: the concentration at half-maximal activity (AC50) under setting [1] was 14.1 µM [falling, single point].

As for `O=C(NC(NC(=S)Nc1ccccc1O)C(Cl)(Cl)Cl)c1ccco1` (stereo not drawn), the half-maximal activity concentration (AC50) under setting [1] was 29.1 µM [falling, single point].

As to `COc1ccc(N2C(=O)CC(c3ccc([N+](=O)[O-])cc3)C2=O)cc1` (stereo not drawn), the AC50 under setting [1] is 22.4 µM [rising, single point].

With `O=C(Nc1ccc(Cl)cc1)Nc1ccccc1CC[N+](=O)[O-]`, under setting [1], the AC50 is 7.08 µM [falling, partial curve, poor fit].

For `CCCCc1cc(=O)oc2cc(O)cc(O)c12`, the AC50 under setting [1] was 35.5 µM [rising, single point].

Take `Cc1ccc2nc(N3C(=O)C(O)=C(C(=O)c4ccco4)C3c3ccc(O)cc3)sc2c1` (stereo not drawn): the concentration at half-maximal activity (AC50) under setting [1] was 0.355 µM [falling, full curve].

`COc1ccc(OC)c(NC(=O)c2cc3n(n2)C(C(F)(F)F)CC(c2ccc4c(c2)OCO4)N3)c1` (stereo not drawn): the AC50 under setting [1] was 20 µM [rising, partial curve, poor fit].

As to `Cc1nnc(N(Cc2ccco2)C(=O)c2cccc(C#N)c2)s1`, the AC50 under setting [1] was 0.116 µM [falling, full curve, poor fit].

As for `Cc1ccccc1-c1nc(CS(=O)(=O)CC(=O)NCc2ccco2)c(C)o1`, the concentration at half-maximal activity (AC50) under setting [1] was 11.2 µM [falling, partial curve, poor fit].

Turning to `Cc1cc(C)nc(Sc2ccc([N+](=O)[O-])cc2[N+](=O)[O-])n1`, the concentration at half-maximal activity (AC50) under setting [1] is 23.1 µM [falling, single point].

With `Cc1ccc(Oc2ccc(S(=O)(=O)N3CCOCC3)cc2C(N)=O)c(-n2nc3ccccc3n2)c1`, the half-maximal activity concentration (AC50) is, setting by setting: under setting [1], 31.6 µM [rising, single point]; under setting [2], 17.8 µM [falling, single point].

For the molecule `CCC(C)c1ccc(NC(=O)Nc2cnccn2)cc1` (stereo not drawn), the AC50 under setting [1] was 5.62 µM [rising, full curve].

`COc1ccc(CCNc2nc3ccccc3n3cnnc23)cc1OC`: the concentration at half-maximal activity (AC50) under setting [1] was 25.1 µM [falling, single point].

Regarding `C[C@H](NC(=O)c1ccc2ccccc2c1)C(=O)N1CCC2(CC1)NCCc1[nH]cnc12`, the half-maximal activity concentration (AC50) under setting [1] is 5.62 µM [rising, single point].

Regarding `COc1ccc(NCN2C(=O)CCC2=O)cc1`, under setting [1], the AC50 was 0.164 µM [rising, full curve, poor fit].

Regarding `O=C(Nc1ccccc1)ON=C1CCCC1`, the AC50 under setting [1] is 29.1 µM [falling, single point].

For `COc1cc(C(=O)N/N=C/c2cc([N+](=O)[O-])cs2)cc(OC)c1OC`, the AC50 was 18.4 µM [rising, partial curve] under setting [1] and 20.6 µM [falling, partial curve] under setting [2].

As to `O=C1NN(c2ccccc2)C(=O)/C1=C\c1ccccc1`, the AC50 under setting [1] was 12.6 µM [falling, single point].

On to `CCOC(=O)C(C)Oc1cccc2c(=O)n(CC(=O)NCc3ccco3)ccc12` (stereo not drawn), for which the half-maximal activity concentration (AC50) runs as follows: under setting [1], 13 µM [rising, partial curve]; under setting [2], 8.2 µM [falling, partial curve].

For the molecule `CSCc1ccc(C(=O)NCc2ccccc2)cc1`, the AC50 under setting [1] was 25.9 µM [falling, single point].

Consider `O=S(=O)(NC1CCCC1)c1cccc(S(=O)(=O)N2CCC(n3nnc4ccccc43)CC2)c1`, for which the AC50 under setting [1] is 14.1 µM [falling, partial curve, poor fit].

`Cc1ccc(S(=O)(=O)N2CCC(C(=O)OCC(=O)N3CC(=O)Nc4ccccc43)CC2)cc1`: the AC50 under setting [1] is 17.8 µM [rising, partial curve, poor fit].

Consider `COc1cc(NC(=O)c2cc(-c3ccccc3Cl)on2)cc(OC)c1OC`, for which the AC50 under setting [1] was 35.5 µM [falling, single point].

With `Cc1ccc(-n2ncc3c(NCCc4ccccc4)ncnc32)cc1Cl`, the AC50 under setting [1] was 2.51 µM [falling, partial curve, poor fit].

On to `Cc1ccc(C)c(OCCCC(=O)N2CCOCC2)c1`, for which, under setting [1], the AC50 is 0.316 µM [rising, full curve, poor fit].

Turning to `O=C(CSc1nnc(CNC(=O)c2cccc(C(F)(F)F)c2)o1)NC1CCCCC1`, under setting [1], the concentration at half-maximal activity (AC50) was 3.16 µM [rising, single point].

`Nc1c(C(=O)N2CCOCC2)sc2nc3c(cc12)CCCC3`: the AC50 under setting [1] was 11.2 µM [falling, single point].

In the case of `CCc1ccc(Nc2nnc(SCC(=O)Nc3cccnc3Cl)s2)cc1`, under setting [1], the concentration at half-maximal activity (AC50) is 6.51 µM [falling, partial curve].

As for `N#CC(C#N)=C1C=CC=CN1/C(=C\c1ccco1)C(=O)c1ccc(Cl)cc1`, the AC50 under setting [1] was 4.11 µM [falling, single point].

As for `CCOc1ccc(C2C=C(c3ccc(F)cc3)Nc3ncnn32)cc1` (stereo not drawn), the AC50 under setting [1] was 0.103 µM [rising, full curve, poor fit].

For the molecule `COc1ccc([N+](=O)[O-])cc1-n1cnnn1`, under setting [1], the AC50 is 12.6 µM [rising, partial curve, poor fit].

Turning to `NS(=O)(=O)c1ccc(CCNC/C=C/c2ccccc2)cc1`, the AC50 under setting [1] was 6.31 µM [falling, partial curve, poor fit].

With `COc1ccc(C(=O)Nc2ccccc2)cc1NC(=O)c1ccc([N+](=O)[O-])cc1`, under setting [1], the half-maximal activity concentration (AC50) is 22.4 µM [falling, single point].

Consider `O=C(NN1CCOCC1)c1ccc(Cl)c([N+](=O)[O-])c1`, for which the AC50 under setting [1] was 5.01 µM [falling, full curve, poor fit].

Take `COc1ccc(-c2nc(-c3ccccc3)c(-c3cccs3)[nH]2)cc1OC`: under setting [1], the half-maximal activity concentration (AC50) is 25.9 µM [falling, single point].

Turning to `COc1cccc(NC(=O)C2CCN(Cc3cnn(-c4ccccc4)c3-n3cccc3)CC2)c1`, the AC50 under setting [1] was 20.6 µM [falling, single point].

Regarding `Cc1ccc2c(c1)CCCN2C(=O)CSc1ccccc1`, the AC50 under setting [1] was 5.62 µM [rising, single point].

In the case of `COc1ccc(/C=C2\SC(=O)N(CCCC(=O)Nc3cc(Cl)ccc3C(=O)O)C2=O)cc1`, under setting [1], the AC50 is 0.206 µM [falling, full curve].

For the molecule `CCOc1ccc2nc(N/C(N)=N/C(=S)Nc3cccc(C)c3)nc(C)c2c1`, the concentration at half-maximal activity (AC50) under setting [1] is 0.794 µM [rising, full curve].

`Oc1ccccc1-c1nc(NCc2ccco2)c2ccccc2n1`: the AC50 under setting [1] was 29.1 µM [falling, single point].

As to `Cc1ccc(-c2cc(C(=O)Nc3cc(C)ccc3C)[nH]n2)c(O)c1`, under setting [1], the AC50 was 0.0366 µM [falling, full curve].

In the case of `COc1ccc([C@@]2(O)c3c(ccc(CC=C(C)C)c3O)NC(=O)[C@@H]2OC)cc1`, under setting [1], the half-maximal activity concentration (AC50) is 35.5 µM [falling, single point].

For `COc1cc(/C=C/C(=O)NC(C)(C)C)ccc1OCc1ccccc1`, under setting [1], the AC50 is 9.2 µM [rising, partial curve].

With `O=C(CC1CC2CCC1C2)N1CCN(S(=O)(=O)c2ccccc2[N+](=O)[O-])CC1` (stereo not drawn), under setting [1], the AC50 was 0.366 µM [rising, partial curve, poor fit].

Take `Nc1c(-c2cccs2)cnn1-c1nc(-c2ccc(Cl)cc2Cl)cs1`: under setting [1], the AC50 was 0.631 µM [falling, full curve, poor fit].

Take `CCc1ccc(C2=CC(c3cccc(OC)c3OC)n3c(nc4ccccc43)N2)cc1` (stereo not drawn): the AC50 under setting [1] is 10 µM [falling, partial curve, poor fit].
